# Measurements published in publication PMC10967246.
# No constants are given. Whether binding was seen depends on the method and setting. Binding can be weak; no strength is given. Sequences can lack the tags named with a protein.
# Target: TTP1 without transit peptide, split-ubiquitin yeast two-hybrid fusion (Arabidopsis)
# Test: two-hybrid; split-ubiquitin yeast two-hybrid; proteins without transit peptide; bait vector pDHB1MCS2, prey vector met25pXCgate; selection without histidine, uracil, leucine and tryptophan, 20 mM 3-aminotriazole, 3 d at 30 °C
row,binding,Binder
1,binds,"PORA without transit peptide, split-ubiquitin yeast two-hybrid fusion (enzyme, UniProt Q42536 70-405) QAIATSTPSVTKSSLDRKKTLRKGNVVVTGASSGLGLATAKALAETGKWHVIMACRDFLKAERAAQSAGMPKDSYTVMHLDLASLDSVRQFVDNFRRAEMPLDVLVCNAAVYQPTANQPTFTAEGFELSVGINHLGHFLLSRLLIDDLKNSDYPSKRLIIVGSITGNTNTLAGNVPPKANLGDLRGLAGGLNGLNSSAMIDGGDFVGAKAYKDSKVCNMLTMQEFHRRFHEDTGITFASLYPGCIATTGLFREHIPLFRTLFPPFQKYITKGYVSESEAGKRLAQVVADPSLTKSGVYWSWNKTSASFENQLSQEASDVEKARRVWEVSEKLVGLA"
2,binds,"PORB without transit peptide, split-ubiquitin yeast two-hybrid fusion (enzyme, UniProt P21218 67-401) QTAATSSPTVTKSVDGKKTLRKGNVVVTGASSGLGLATAKALAETGKWNVIMACRDFLKAERAAKSVGMPKDSYTVMHLDLASLDSVRQFVDNFRRTETPLDVLVCNAAVYFPTAKEPTYSAEGFELSVATNHLGHFLLARLLLDDLKKSDYPSKRLIIVGSITGNTNTLAGNVPPKANLGDLRGLAGGLNGLNSSAMIDGGDFDGAKAYKDSKVCNMLTMQEFHRRFHEETGVTFASLYPGCIASTGLFREHIPLFRALFPPFQKYITKGYVSETESGKRLAQVVSDPSLTKSGVYWSWNNASASFENQLSEEASDVEKARKVWEISEKLVGLA"
3,binds,"PORC without transit peptide, split-ubiquitin yeast two-hybrid fusion (enzyme, UniProt O48741 68-401) QTVTATPPANEASPEQKKTERKGTAVITGASSGLGLATAKALADTGKWHVIMACRNFLKAEKAARSVGMSKEDYTVMHLDLASLESVKQFVENFRRTEQPLDVLVCNAAVYQPTAKEPSFTAEGFEISVGTNHLGHFLLSRLLLDDLKKSDYPSKRMIIVGSITGNTNTLAGNVPPKANLGDLRGLASGLNGQNSSMIDGGEFDGAKAYKDSKVCNMLTMQELHRRYHEETGVTFASLYPGCIATTGLFREHIPLFRLLFPPFQKYITKGYVSEEEAGKRLAQVVSDPSLGKSGVYWSWNNNSSSFENQLSKEASDAEKAKKLWEVSEKLVGLA"
